# Source: publication PMC7819943, “Rice protein-binding microarrays: a tool to detect cis-acting elements near promoter regions in rice”
# The chains behind the UniProt entries cited, without tags or fusion partners.
# UniProt Q0JBA9, entry or part of it: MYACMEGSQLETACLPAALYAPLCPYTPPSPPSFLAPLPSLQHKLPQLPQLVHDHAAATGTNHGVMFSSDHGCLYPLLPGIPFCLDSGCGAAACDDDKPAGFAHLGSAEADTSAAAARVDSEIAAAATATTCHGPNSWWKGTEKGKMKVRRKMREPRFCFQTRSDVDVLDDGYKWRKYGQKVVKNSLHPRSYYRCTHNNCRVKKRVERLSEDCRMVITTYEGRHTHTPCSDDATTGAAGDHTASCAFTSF
# This is one part of the list.
# Molecular target: OsWRKY34 (Oryza sativa, UniProt Q0JBA9 1-250)
# Experiment: protein-binding microarray (RPBM); PBS, 2% BSA, 51.3 ng/ul salmon testes DNA, 50 uM zinc acetate, 200 nM TF, 25 C, 1 h; high values mean tight binding
# Conditions: protein: recombinant; tags: N-terminal polyhistidine and DsRed monomer fusion (pET32a); label: CyDye5-dUTP incorporated in the synthesized complementary strand; 3' TTTTT single-stranded linker to array surface; dsDNA, one strand shown
# Outline: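 In PBS with 2% BSA, salmon testes DNA and 50 µM zinc acetate, 200 nM protein was incubated on a custom Agilent array at 25 °C for 1 h and then washed off. The array had been made double-stranded by primer extension with Cy5-dUTP and blocked with 2% BSA. The proteins were transcription factors fused N-terminally to polyhistidine and DsRed, expressed in E. coli BL21-CodonPlus and purified on Ni–NTA. The binding signal is per-feature fluorescence intensity (arbitrary units) from an Axon 4000B scanner.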
row,Sequence,binding signal
1,TCATATCGTTGTGCTAGTATCCGGCGCCGCTTCCGTTCATCGGAGTCACCTAGTGCAG,11400 fluorescence intensity (a.u.)
2,CTTACACCTTCATCTTCAACTATATTCTTGGTTTCTTCATCGGAGTCACCTAGTGCAG,10900 fluorescence intensity (a.u.)
3,CTCTTATCTTTTTTCCAACTGCATACCGGCCAAGAGAAGACGGAGTCACCTAGTGCAG,8300 fluorescence intensity (a.u.)
4,AATTGCCTTCGTCTGCGCCCCGCGGGCTCTCGTCCCAACCCGGAGTCACCTAGTGCAG,8840 fluorescence intensity (a.u.)
5,ATCATCTTGCGAATCAAGCATACACACAAACACTTCATTTCGGAGTCACCTAGTGCAG,8050 fluorescence intensity (a.u.)
6,CCGATCCATCTCGACTCGACGCCCCAAGCAGCCAAGCTGACGGAGTCACCTAGTGCAG,8630 fluorescence intensity (a.u.)
7,CCTCCATGCCTCCTCCGCCATCTCTCTCTCTCTCTCGCTCCGGAGTCACCTAGTGCAG,9060 fluorescence intensity (a.u.)
8,AATCTCACGAACCCTTGCGCCGTCGGTCTCTCTCTCTCGCCGGAGTCACCTAGTGCAG,8420 fluorescence intensity (a.u.)
9,CCGGCGACCTCGAGCCTTCCGCTCATCCATCTCTGCAGAGCGGAGTCACCTAGTGCAG,10400 fluorescence intensity (a.u.)
10,CGGCGACCGTTGATATTTCTCGTCTCTCATCTCACCACCGCGGAGTCACCTAGTGCAG,8040 fluorescence intensity (a.u.)
11,AGGTTGGTTGGTTCACACTTCACACACATCTTTTTCGACCCGGAGTCACCTAGTGCAG,12400 fluorescence intensity (a.u.)
12,TTTGCCAAAATTTGATTAATTTCGTTTGACTTTTGCCGTTCGGAGTCACCTAGTGCAG,13500 fluorescence intensity (a.u.)
13,ATTCCTCATCTCGTTGATGCCGACTTATATCTGCCCTGATCGGAGTCACCTAGTGCAG,9330 fluorescence intensity (a.u.)
14,AAATTCTACCGCATCGTGGCCCACTTCGCCTCTCTTTCCTCGGAGTCACCTAGTGCAG,10800 fluorescence intensity (a.u.)
15,CATCACGGCACAAAAATATCTTCATATTTGCTCACATCAGCGGAGTCACCTAGTGCAG,8030 fluorescence intensity (a.u.)
16,GCTCCTCCTTGCTGTTCATGGCCACCGGGAGGGAGAGGGGCGGAGTCACCTAGTGCAG,8210 fluorescence intensity (a.u.)
17,CACCACCCGCCGCCGTCGCCGTTGCCGTCGTCTTCGTTTCCGGAGTCACCTAGTGCAG,13900 fluorescence intensity (a.u.)
18,TACTCGCCCACCTTGTCGTCGCCGTCGAAGCCATCGCCACCGGAGTCACCTAGTGCAG,8640 fluorescence intensity (a.u.)
19,ATCTTGCTGCCACGACCACCACCCATAAGCATCACCCACACGGAGTCACCTAGTGCAG,11300 fluorescence intensity (a.u.)
20,GGGTGTGGATATAGCAAATTTTGAGGCAAGGATGCAGGCACGGAGTCACCTAGTGCAG,8260 fluorescence intensity (a.u.)
21,CCACGTGCCCCTCGTGGTGGTCGTCCCCGCGCCCCAGCTTCGGAGTCACCTAGTGCAG,8310 fluorescence intensity (a.u.)

row,Sequence,binding signal
1,TGTTCTCCTCCTAATGTGCTGTCATTTTCTGTATGCTATTCGGAGTCACCTAGTGCAG,9830 fluorescence intensity (a.u.)
2,CCCTAGCCCTCGCCCTGGTCCGTCCGGCGTGGCGCGCGCTCGGAGTCACCTAGTGCAG,8030 fluorescence intensity (a.u.)
3,CTACCGTATACACTTGCAAGTACATAATTTATTTTTTTTTCGGAGTCACCTAGTGCAG,8440 fluorescence intensity (a.u.)
4,CCTTGACAGATTAATCCTACGTTTTGACCCCATATGTTTTCGGAGTCACCTAGTGCAG,8880 fluorescence intensity (a.u.)
5,TTTTTTTTGGGTTTGTTGGAACCATGCCACCCTATATTTACGGAGTCACCTAGTGCAG,8200 fluorescence intensity (a.u.)
6,ACTTTTCGTTGCCGTGTTGGGATGTGCACCCTGATACCCGCGGAGTCACCTAGTGCAG,8590 fluorescence intensity (a.u.)
7,ATCACGTACTACCGGGCGTCCCCACTATTTTCAGCCCACACGGAGTCACCTAGTGCAG,15300 fluorescence intensity (a.u.)
8,TTTTTTTCTTTTCTGCTTCTTTCTCGTGATCGATCGCTATCGGAGTCACCTAGTGCAG,8730 fluorescence intensity (a.u.)
9,TCAAGCACTTCAGAGTCTTCTTCTTTCTCTGCTTTTGGGGCGGAGTCACCTAGTGCAG,9900 fluorescence intensity (a.u.)
10,ACTTATTATCCATTTAAATATGCTACTAGTCATTCCTCATCGGAGTCACCTAGTGCAG,9030 fluorescence intensity (a.u.)
11,GTTTCTTTTGCTACCTTTTTAACCGCTAATAGCATAAATGCGGAGTCACCTAGTGCAG,8080 fluorescence intensity (a.u.)
12,TTTTTTTCGGTCTCAATATTTTTTTTTCTCACGTCTTTCGCGGAGTCACCTAGTGCAG,10800 fluorescence intensity (a.u.)
13,ACACTGGTCTTCTACTCTGTTATCATCTGTTCAGGAAACACGGAGTCACCTAGTGCAG,8120 fluorescence intensity (a.u.)
14,GTCCTAATATGTGCAATTAATTATTTTTTTAGCCTACATTCGGAGTCACCTAGTGCAG,9300 fluorescence intensity (a.u.)
15,CCACATCCATCTATCATCGTGCATAAGCTTCCTATCATACCGGAGTCACCTAGTGCAG,8180 fluorescence intensity (a.u.)
16,GGGTGTCTTGATGGTTATGATACTGATTTTCTTTATGTCTCGGAGTCACCTAGTGCAG,8260 fluorescence intensity (a.u.)
17,ATCTCTGTCTCTGTCTGTCAATCTCACGCACACCAGCACACGGAGTCACCTAGTGCAG,9420 fluorescence intensity (a.u.)
18,ATATATCCATAGTTCTATACACAAAGCGTACCTGTTCTTTCGGAGTCACCTAGTGCAG,9950 fluorescence intensity (a.u.)
19,ACTTCACCAACCTATCTGGCCCGCTCACTACCGGCACAATCGGAGTCACCTAGTGCAG,11000 fluorescence intensity (a.u.)
20,ACCGTTCCAGGATTCCAGCACATACTGATGCATCCTTTTTCGGAGTCACCTAGTGCAG,8660 fluorescence intensity (a.u.)
21,GCCTGGTCTGGTCTTGTTGTATAAAATCTCTTAATTGCCACGGAGTCACCTAGTGCAG,8620 fluorescence intensity (a.u.)

row,Sequence,binding signal
1,CATGATCGCTGTGCACCTTCTGAATCATCTCTTCAATGGCCGGAGTCACCTAGTGCAG,9780 fluorescence intensity (a.u.)
2,TTTACCGTTTTACCCCTCGCCGGCGGCCGCCGCACTCCGGCGGAGTCACCTAGTGCAG,8820 fluorescence intensity (a.u.)
3,GTCTACATGAACCATTCCAAATGACTTTTATAGGATTTCACGGAGTCACCTAGTGCAG,8340 fluorescence intensity (a.u.)
4,ATTCACGCCGCTGCGGCCGCTTGCACATCCACGCACTTTGCGGAGTCACCTAGTGCAG,10400 fluorescence intensity (a.u.)
5,CGTTCTGCCCCGGTTGTTTGCTACTCGCGTCCACGCGATCCGGAGTCACCTAGTGCAG,8930 fluorescence intensity (a.u.)
6,GATGTCTTTTACTCCCATGTTAGCAGTGCCGAGATTTCGTCGGAGTCACCTAGTGCAG,9800 fluorescence intensity (a.u.)
7,GGGTGTTTGTGAGAGAGAGAGAGAGAGAGAGATTCCATTTCGGAGTCACCTAGTGCAG,8390 fluorescence intensity (a.u.)
8,GCAAACCATATTTTCGTCGGTCTACTTCTGGGAATTCGTTCGGAGTCACCTAGTGCAG,8360 fluorescence intensity (a.u.)
9,CATTTGTTTCGACCGCTTCAAGCCTTGGATGCTCTGCTCTCGGAGTCACCTAGTGCAG,11400 fluorescence intensity (a.u.)
10,GACTTCATTGGTATTAAGATATATTGACTTAATTTTTGTCCGGAGTCACCTAGTGCAG,8180 fluorescence intensity (a.u.)
11,GATCTTTCAGCTCCTTGACAGCACTGCGTCTTCTATCATACGGAGTCACCTAGTGCAG,8230 fluorescence intensity (a.u.)
12,GCAAATGTCCTACTCTGTTTAATGCCAAACCACCCACAATCGGAGTCACCTAGTGCAG,9480 fluorescence intensity (a.u.)
13,CATGCTGACTTTACAATCACTTTCTTCAACCCAATGTACTCGGAGTCACCTAGTGCAG,8290 fluorescence intensity (a.u.)
14,TCCCATGCCGCGCTCGTCGATCCCCAAATCTCGCCGCCGGCGGAGTCACCTAGTGCAG,9000 fluorescence intensity (a.u.)
15,TGCTTTACTTTCCATTCCCATTGCAACCCCACAACTTTCTCGGAGTCACCTAGTGCAG,10200 fluorescence intensity (a.u.)
16,GTGAAGGTGTTGTTGTTGGTGGTGGTGGATTTTCGCCATGCGGAGTCACCTAGTGCAG,10100 fluorescence intensity (a.u.)
17,GCCTGAGTTCCAGCTAAGTCGTTGACTAACTCCCAGCAAACGGAGTCACCTAGTGCAG,13400 fluorescence intensity (a.u.)
18,TTTGCTGCTGAATGTTATATGTGTCGTTCCTATAAAATCCCGGAGTCACCTAGTGCAG,8380 fluorescence intensity (a.u.)
19,CCTCTCCCGTCGCCACCCATCTCGCCGCGACCTGGAGATCCGGAGTCACCTAGTGCAG,8750 fluorescence intensity (a.u.)
20,ATCCTGACCCATAGTTGGCCGTACGTTGTTTGCCCATCCACGGAGTCACCTAGTGCAG,11800 fluorescence intensity (a.u.)
21,TCACCTTAGACCCTGTTTAATTCACATTAAACTTTTCCTACGGAGTCACCTAGTGCAG,8480 fluorescence intensity (a.u.)

row,Sequence,binding signal
1,TTTAAATTTATATTTCTAATTAATTAGGTTGTGTTTTTATCGGAGTCACCTAGTGCAG,9020 fluorescence intensity (a.u.)
2,GGAGACCATCGCCCCTGTTCTCGTCGTCATCGCGGAGGTTCGGAGTCACCTAGTGCAG,11100 fluorescence intensity (a.u.)
3,GTACTAAGTTCTTTCTTTGACTTACCGTTTAAGGTCGTCTCGGAGTCACCTAGTGCAG,9490 fluorescence intensity (a.u.)
4,TTGGTCAAAGTCAAACTGCTTTAAGTTTGACCAAGTTTGTCGGAGTCACCTAGTGCAG,21500 fluorescence intensity (a.u.)
5,GTAGCTTCTCCGGTTGGCGTCATACACCACCTTTACCTCGCGGAGTCACCTAGTGCAG,8320 fluorescence intensity (a.u.)
6,ATTATTTTGTCTTCCGCTGTTGTTCTCTGATAGTTGTTGGCGGAGTCACCTAGTGCAG,8170 fluorescence intensity (a.u.)
7,GAACTATTACTCCATCCGGTTTCATATTCCTAACATTTTACGGAGTCACCTAGTGCAG,12500 fluorescence intensity (a.u.)
8,AGATTCAGTTCTTCATTTGGTTATTATCTAAAGAACGCCTCGGAGTCACCTAGTGCAG,9020 fluorescence intensity (a.u.)
9,ATCATAATATGTGGTTCTTTTTATTTAAAATATTTTATTTCGGAGTCACCTAGTGCAG,9230 fluorescence intensity (a.u.)
10,CTCCTGCCTGGGTTTGGTTTGGTTTGGCTTTGCTTCTTCCCGGAGTCACCTAGTGCAG,36800 fluorescence intensity (a.u.)
11,AATCAACTCCACTGTATCAGCCAGCTGCTTCGGAAAGCTCCGGAGTCACCTAGTGCAG,10300 fluorescence intensity (a.u.)
12,CACCCAACTAACTACACCTGTCTGAAACCAACAATTTTCTCGGAGTCACCTAGTGCAG,8390 fluorescence intensity (a.u.)
13,CACCCAATTGCAAGTTTTGTTGTATGTTCCAAGCTGTGTTCGGAGTCACCTAGTGCAG,8700 fluorescence intensity (a.u.)
14,CGTCGCCCGTCGCCAGCCACCAGCCGATTGGCTCTGATACCGGAGTCACCTAGTGCAG,8410 fluorescence intensity (a.u.)
15,GGTCACCGCTCTCTCGGTTGACCGGCTGCCTAACCTTCGCCGGAGTCACCTAGTGCAG,8730 fluorescence intensity (a.u.)
16,AACGATGCACAAACTACAACGAACTCGCCCACAATCGCAACGGAGTCACCTAGTGCAG,8070 fluorescence intensity (a.u.)
17,CCATCACCTCGTCGTCCCCGTCACCGCGCCTCTCCCGCTGCGGAGTCACCTAGTGCAG,11000 fluorescence intensity (a.u.)
18,GCTAATATTATAAGGCTCAATTCATTCTCTTGGGTGTTCTCGGAGTCACCTAGTGCAG,8080 fluorescence intensity (a.u.)
19,GGTTGTTGATTGCGCACGGATTTCCTCTGTTGTCTTGAGCCGGAGTCACCTAGTGCAG,9050 fluorescence intensity (a.u.)
20,GCGGGAGGAGAGCGGCGGGCGGCGGGCGGCGGCGGCTGTGCGGAGTCACCTAGTGCAG,9520 fluorescence intensity (a.u.)
21,AACCACGATCTCTCTTCTGCTTGGAATTCTCTATCCTATTCGGAGTCACCTAGTGCAG,8420 fluorescence intensity (a.u.)

# 5 entries picked at random from those above, as already listed:
row,Sequence,binding signal
1,TCATATCGTTGTGCTAGTATCCGGCGCCGCTTCCGTTCATCGGAGTCACCTAGTGCAG,11400 fluorescence intensity (a.u.)
21,AACCACGATCTCTCTTCTGCTTGGAATTCTCTATCCTATTCGGAGTCACCTAGTGCAG,8420 fluorescence intensity (a.u.)
18,TTTGCTGCTGAATGTTATATGTGTCGTTCCTATAAAATCCCGGAGTCACCTAGTGCAG,8380 fluorescence intensity (a.u.)
6,ACTTTTCGTTGCCGTGTTGGGATGTGCACCCTGATACCCGCGGAGTCACCTAGTGCAG,8590 fluorescence intensity (a.u.)
2,GGAGACCATCGCCCCTGTTCTCGTCGTCATCGCGGAGGTTCGGAGTCACCTAGTGCAG,11100 fluorescence intensity (a.u.)
